# Some of the results follow.
# B1: SspB C123 (Streptococcus gordonii), Q54186 (protein)
# chain: MAHFHYSSLLAQPQINKEIKNEDGVDIDRTLVAKQSIGKFELKTEALTAGRPKTTSFVLVDPLPTGYKFDLDATKAASTGFDTTYDEASHTVTFKATDETLATYNADLTKPVETLHPTVVGRVLNDGATYTNNFTLTVNDAYGIKSNVVRVTTPGKPNDPDNPNNNYIKPTKVNKNKEGLNIDGKEVLAGSTNYYELTWDLDQYKGDKSSKEAIQNGFYYVDDYPEEALDVRPDLVKVADEKGNQVSGVSVQQYDSLEAAPKKVQDLLKKANITVKGAFQLFSADNPEEFYKQYVSTGTSLVITDPMTVKSEFGKTGGKYENKAYQIDFGNGYATEVVVNNVPKITPKKDVTVSLDPTSENLDGQTVQLYQTFNYRLIGGFIPQNHSEELEDYSFVDDYDQAGDQYTGNYKTFSSLNLTMKDGSVIKAGTDLTSQTTAETDATNGIVTVRFKEDFLQKISLDSPFQAETYLQMRRIAIGTFENTYVNTVNKVAYASAAALEHHHHHH
# Experiments:
# Experiment in all cases: glycan array binding signal (z-score within array); higher = stronger binding
# Conditions in all cases: glycan notation: IUPAC condensed, linker removed
# [1] = molecular target: Fuc(a1-2)Gal
# Procedure, shortened: (§1)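 Glycan array binding is given as a within-array Z-score, which can be read as non-binding when negative. The arrays, 3228 of them, came from the Consortium for Functional Glycomics database and were retained only where the protein sequence was available. Z-scores were averaged across arrays of the same protein sequence at different concentrations or buffers and across linkers.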
# [2] = molecular target: Fuc(a1-2)Gal(b1-3)GalNAc
# Procedure, shortened: as §1
# [3] = molecular target: Fuc(a1-2)Gal(b1-3)GalNAc(a1-3)[Fuc(a1-2)]Gal(b1-4)Glc
# Procedure, shortened: as §1
# [4] = molecular target: Fuc(a1-2)Gal(b1-3)GalNAc(a1-3)[Fuc(a1-2)]Gal(b1-4)GlcNAc
# Procedure, shortened: as §1
# [5] = molecular target: Fuc(a1-2)Gal(b1-3)GalNAc(b1-3)Gal
# Procedure, shortened: as §1
# [6] = molecular target: Fuc(a1-2)Gal(b1-3)GalNAc(b1-3)Gal(a1-4)Gal(b1-4)Glc
# Procedure, shortened: as §1
# [7] = molecular target: Fuc(a1-2)Gal(b1-3)GalNAc(b1-4)[Neu5Ac(a2-3)]Gal(b1-4)Glc
# Procedure, shortened: as §1
# [8] = molecular target: Fuc(a1-2)Gal(b1-3)GlcNAc
# Procedure, shortened: as §1
# [9] = molecular target: Fuc(a1-2)Gal(b1-3)GlcNAc(b1-2)Man(a1-3)[Fuc(a1-2)Gal(b1-3)GlcNAc(b1-2)Man(a1-6)]Man(b1-4)GlcNAc(b1-4)GlcNAc
# Procedure, shortened: as §1
# [10] = molecular target: Fuc(a1-2)Gal(b1-3)GlcNAc(b1-2)Man(a1-3)[Fuc(a1-2)Gal(b1-3)GlcNAc(b1-2)Man(a1-6)]Man(b1-4)GlcNAc(b1-4)[Fuc(a1-6)]GlcNAc
# Procedure, shortened: as §1
# [11] = molecular target: Fuc(a1-2)Gal(b1-3)GlcNAc(b1-3)Gal(b1-4)Glc
# Procedure, shortened: as §1
# [12] = molecular target: Fuc(a1-2)Gal(b1-3)GlcNAc(b1-3)GalNAc
# Procedure, shortened: as §1
# [13] = molecular target: Fuc(a1-2)Gal(b1-3)GlcNAc(b1-3)[Fuc(a1-2)Gal(b1-3)GlcNAc(b1-6)]GalNAc
# Procedure, shortened: as §1
# [14] = molecular target: Fuc(a1-2)Gal(b1-3)GlcNAc(b1-3)[Gal(b1-4)GlcNAc(b1-6)]Gal(b1-4)Glc
# Procedure, shortened: as §1
# [15] = molecular target: Fuc(a1-2)Gal(b1-3)GlcNAc(b1-3)[Neu5Ac(a2-6)Gal(b1-4)GlcNAc(b1-6)]Gal(b1-4)Glc
# Procedure, shortened: as §1
# [16] = molecular target: Fuc(a1-2)Gal(b1-3)GlcNAc6S
# Procedure, shortened: as §1
# [17] = molecular target: Fuc(a1-2)Gal(b1-3)[Fuc(a1-4)]GlcNAc
# Procedure, shortened: as §1
# [18] = molecular target: Fuc(a1-2)Gal(b1-3)[Fuc(a1-4)]GlcNAc(b1-2)Man(a1-3)[Fuc(a1-2)Gal(b1-3)[Fuc(a1-4)]GlcNAc(b1-2)Man(a1-3)]Man(b1-4)GlcNAc(b1-4)GlcNAc
# Procedure, shortened: as §1
# [19] = molecular target: Fuc(a1-2)Gal(b1-3)[Fuc(a1-4)]GlcNAc(b1-2)Man(a1-3)[Fuc(a1-2)Gal(b1-3)[Fuc(a1-4)]GlcNAc(b1-2)Man(a1-6)]Man(b1-4)GlcNAc(b1-4)[Fuc(a1-6)]GlcNAc(b1-4)[Fuc(a1-6)]GlcNAc
# Procedure, shortened: as §1
# [20] = molecular target: Fuc(a1-2)Gal(b1-3)[Fuc(a1-4)]GlcNAc(b1-3)[Fuc(a1-3)[Gal(b1-4)]GlcNAc(b1-6)]Gal(b1-4)Glc
# Procedure, shortened: as §1
# [21] = molecular target: Fuc(a1-2)Gal(b1-3)[Fuc(a1-4)]GlcNAc(b1-3)[Gal(b1-4)GlcNAc(b1-6)]Gal(b1-4)Glc
# Procedure, shortened: as §1
# [22] = molecular target: Fuc(a1-2)Gal(b1-4)Fuc(a1-3)]GlcNAc(b1-2)Man(a1-3)[Fuc(a1-2)Gal(b1-4)[Fuc(a1-3)]GlcNAc(b1-2)Man(a1-6)]Man(b1-4)GlcNAc(b1-4)GlcNAc
# Procedure, shortened: as §1
# [23] = molecular target: Fuc(a1-2)Gal(b1-4)Glc
# Procedure, shortened: as §1
# [24] = molecular target: Fuc(a1-2)Gal(b1-4)Glc6S
# Procedure, shortened: as §1
# [25] = molecular target: Fuc(a1-2)Gal(b1-4)GlcNAc
# Procedure, shortened: as §1
# [26] = molecular target: Fuc(a1-2)Gal(b1-4)GlcNAc(b1-2)Man
# Procedure, shortened: as §1
# [27] = molecular target: Fuc(a1-2)Gal(b1-4)GlcNAc(b1-2)Man(a1-3)[Fuc(a1-2)Gal(b1-4)GlcNAc(b1-2)Man(a1-6)]Man(b1-4)GlcNAc(b1-4)GlcNAc
# Procedure, shortened: as §1
# [28] = molecular target: Fuc(a1-2)Gal(b1-4)GlcNAc(b1-2)Man(a1-3)[Fuc(a1-2)Gal(b1-4)GlcNAc(b1-2)Man(a1-6)]Man(b1-4)GlcNAc(b1-4)[Fuc(a1-6)]GlcNAc
# Procedure, shortened: as §1
# [29] = molecular target: Fuc(a1-2)Gal(b1-4)GlcNAc(b1-2)[Fuc(a1-2)Gal(b1-4)GlcNAc(b1-4)]Man(a1-3)[Fuc(a1-2)Gal(b1-4)GlcNAc(b1-2)Man(a1-6)]Man(b1-4)GlcNAc(b1-4)GlcNAc
# Procedure, shortened: as §1
# [30] = molecular target: Fuc(a1-2)Gal(b1-4)GlcNAc(b1-3)Gal(b1-4)GlcNAc
# Procedure, shortened: as §1
# [31] = molecular target: Fuc(a1-2)Gal(b1-4)GlcNAc(b1-3)Gal(b1-4)GlcNAc(b1-2)Man(a1-3)[Fuc(a1-2)Gal(b1-4)GlcNAc(b1-3)Gal(b1-4)GlcNAc(b1-2)Man(a1-6)]Man(b1-4)GlcNAc(b1-4)GlcNAc
# Procedure, shortened: as §1
# [32] = molecular target: Fuc(a1-2)Gal(b1-4)GlcNAc(b1-3)Gal(b1-4)GlcNAc(b1-3)Gal(b1-4)GlcNAc
# Procedure, shortened: as §1
# [33] = molecular target: Fuc(a1-2)Gal(b1-4)GlcNAc(b1-3)GalNAc
# Procedure, shortened: as §1
# [34] = molecular target: Fuc(a1-2)Gal(b1-4)GlcNAc(b1-3)[Fuc(a1-2)Gal(b1-4)GlcNAc(b1-6)]GalNAc
# Procedure, shortened: as §1
# [35] = molecular target: Fuc(a1-2)Gal(b1-4)GlcNAc(b1-3)[Fuc(a1-3)[Gal(b1-4)]GlcNAc(b1-6)]Gal(b1-4)Glc
# Procedure, shortened: as §1
# [36] = molecular target: Fuc(a1-2)Gal(b1-4)GlcNAc(b1-6)GalNAc
# Procedure, shortened: as §1
# [37] = molecular target: Fuc(a1-2)Gal(b1-4)GlcNAc6S
# Procedure, shortened: as §1
# [38] = molecular target: Fuc(a1-2)Gal(b1-4)[Fuc(a1-3)]GlcNAc
# Procedure, shortened: as §1
# [39] = molecular target: Fuc(a1-2)Gal(b1-4)[Fuc(a1-3)]GlcNAc(b1-2)Man(a1-3)[Fuc(a1-2)Gal(b1-4)[Fuc(a1-3)]GlcNAc(b1-2)Man(a1-6)]Man(b1-4)GlcNAc(b1-4)[Fuc(a1-6)]GlcNAc
# Procedure, shortened: as §1
# [40] = molecular target: Fuc(a1-2)Gal(b1-4)[Fuc(a1-3)]GlcNAc(b1-2)[Fuc(a1-2)Gal(b1-4)[Fuc(a1-3)]GlcNAc(b1-4)]Man(a1-3)[Fuc(a1-2)Gal(b1-4)[Fuc(a1-3)]GlcNAc(b1-2)Man(a1-6)]Man(b1-4)GlcNAc(b1-4)GlcNAc
# Procedure, shortened: as §1
# [41] = molecular target: Fuc(a1-2)Gal(b1-4)[Fuc(a1-3)]GlcNAc(b1-3)Gal(b1-4)[Fuc(a1-3)]GlcNAc
# Procedure, shortened: as §1
# [42] = molecular target: Fuc(a1-2)Gal(b1-4)[Fuc(a1-3)]GlcNAc(b1-3)Gal(b1-4)[Fuc(a1-3)]GlcNAc(b1-3)Gal(b1-4)[Fuc(a1-3)]GlcNAc
# Procedure, shortened: as §1
# [43] = molecular target: Fuc(a1-2)Gal(b1-4)[Fuc(a1-3)]GlcNAc(b1-3)GalNAc
# Procedure, shortened: as §1
# [44] = molecular target: Fuc(a1-2)Gal(b1-4)[Fuc(a1-3)]GlcNAc(b1-3)[Neu5Ac(a2-6)Gal(b1-4)GlcNAc(b1-6)]Gal(b1-4)Glc
# Procedure, shortened: as §1
# [45] = molecular target: Fuc(a1-2)Gal3S(b1-4)GlcNAc
# Procedure, shortened: as §1
binder,measurement,setting,value
B1,glycan array binding signal (z-score),[1],-0.078
same,glycan array binding signal (z-score),[2],-0.501
same,glycan array binding signal (z-score),[3],2.17
same,glycan array binding signal (z-score),[4],-1.8
same,glycan array binding signal (z-score),[5],0.233
same,glycan array binding signal (z-score),[6],-1.08
same,glycan array binding signal (z-score),[7],0.508
same,glycan array binding signal (z-score),[8],-0.522
same,glycan array binding signal (z-score),[9],-0.237
same,glycan array binding signal (z-score),[10],-1.24
same,glycan array binding signal (z-score),[11],-0.465
same,glycan array binding signal (z-score),[12],0.158
same,glycan array binding signal (z-score),[13],1.6
same,glycan array binding signal (z-score),[14],-0.17
same,glycan array binding signal (z-score),[15],1.14
same,glycan array binding signal (z-score),[16],-0.474
same,glycan array binding signal (z-score),[17],-1.01
same,glycan array binding signal (z-score),[18],0.525
same,glycan array binding signal (z-score),[19],-0.501
same,glycan array binding signal (z-score),[20],-0.205
same,glycan array binding signal (z-score),[21],-0.129
same,glycan array binding signal (z-score),[22],0.837
same,glycan array binding signal (z-score),[23],-1.34
same,glycan array binding signal (z-score),[24],-1.25
same,glycan array binding signal (z-score),[25],-0.302
same,glycan array binding signal (z-score),[26],0.493
same,glycan array binding signal (z-score),[27],-0.148
same,glycan array binding signal (z-score),[28],-0.468
same,glycan array binding signal (z-score),[29],2.68
same,glycan array binding signal (z-score),[30],-1.2
same,glycan array binding signal (z-score),[31],0.511
same,glycan array binding signal (z-score),[32],-0.573
same,glycan array binding signal (z-score),[33],-0.78
same,glycan array binding signal (z-score),[34],-0.475
same,glycan array binding signal (z-score),[35],-0.458
same,glycan array binding signal (z-score),[36],-0.144
same,glycan array binding signal (z-score),[37],-0.494
same,glycan array binding signal (z-score),[38],-0.903
same,glycan array binding signal (z-score),[39],0.993
same,glycan array binding signal (z-score),[40],1.54
same,glycan array binding signal (z-score),[41],-0.699
same,glycan array binding signal (z-score),[42],-0.604
same,glycan array binding signal (z-score),[43],3.99
same,glycan array binding signal (z-score),[44],0.225
same,glycan array binding signal (z-score),[45],-1.02

# Given with bars between the fields: entries from further up
binder | measurement | setting | value
B1 | glycan array binding signal (z-score) | [29] | 2.68
same | glycan array binding signal (z-score) | [30] | -1.2
same | glycan array binding signal (z-score) | [31] | 0.511

# From the supplement of paper PMC8728848
